{"source": "PubChem BioAssay AID652259 (Drosophila RNAi Screening Center, 2013)", "screen": "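Identify new Wingless signalling regulators in fly cells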 (primary screen)", "cells": "Drosophila clone 8 imaginal disc epithelial cells", "reagents": "long dsRNA against Drosophila genes", "challenge": "pathway stimulated by co-transfected Wingless expression plasmid", "detection": "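Dual luciferase reads per well after Wingless plasmid stimulation: reporter firefly light and Renilla control light; activity is firefly divided by Renilla, a ratio not deposited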", "reading the numbers": "firefly reporter light: higher = more Wg reporter light, before normalisation; Renilla control light: higher = more transfected or surviving cells", "active means": "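a knock-down is a candidate when at least two out of four statistical tests show it departing from its plate mean; one test alone signals a weak candidate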", "meaning of the calls": "active = candidate regulator (raises or lowers reporter); inactive = not a candidate", "note": "In all, the deposit lists about 22,000 reagents; this is a random part of those with a known target gene and a result. In the full data, 233 (1.1%) got an active call. 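Light values are raw, unnormalised plate reads; the ratio scores behind the reporter calls were not deposited.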 The numbers tell different reagents against one gene apart. Names joined by + are all predicted targets of the reagent. Reagent sequences are not shown. Not stated in the record: the amount of reagent, the time to read-out, the dose of the treatment."}
{"target":"dom","reagent":1,"reporter change call, replicate 1":"Wg reporter activity raised","firefly reporter light, replicate 1":35590,"Renilla control light, replicate 1":1608,"call":"active"}
{"target":"dom","reagent":2,"reporter change call, replicate 1":"Wg reporter activity raised","firefly reporter light, replicate 1":6756,"firefly reporter light, replicate 2":8464,"Renilla control light, replicate 1":576,"Renilla control light, replicate 2":1468,"call":"inactive"}
{"target":"mbt","reagent":1,"firefly reporter light, replicate 1":15808,"Renilla control light, replicate 1":5202,"call":"inactive"}
{"target":"CG2104","reagent":1,"firefly reporter light, replicate 1":12506,"Renilla control light, replicate 1":3396,"call":"inactive"}
{"target":"Alp5","reagent":1,"firefly reporter light, replicate 1":2986,"firefly reporter light, replicate 2":6365,"Renilla control light, replicate 1":1346,"Renilla control light, replicate 2":2022,"call":"inactive"}
{"target":"CG16935","reagent":1,"firefly reporter light, replicate 1":4518,"Renilla control light, replicate 1":1753,"call":"inactive"}

Reagents listed above marked active (1):
{"target":"dom","reagent":1,"reporter change call, replicate 1":"Wg reporter activity raised","firefly reporter light, replicate 1":35590,"Renilla control light, replicate 1":1608,"call":"active"}

Continued.
{"target":"qkr58E-1","reagent":1,"firefly reporter light, replicate 1":6269,"Renilla control light, replicate 1":1449,"call":"inactive"}
{"target":"pit","reagent":1,"firefly reporter light, replicate 1":38133,"Renilla control light, replicate 1":7257,"call":"inactive"}
{"target":"pit","reagent":2,"firefly reporter light, replicate 1":7.66e5,"firefly reporter light, replicate 2":7.50e5,"Renilla control light, replicate 1":3.12e5,"Renilla control light, replicate 2":3.96e5,"call":"inactive"}
{"target":"Cog4","reagent":1,"firefly reporter light, replicate 1":10500,"Renilla control light, replicate 1":3072,"call":"inactive"}
{"target":"CG15425","reagent":1,"firefly reporter light, replicate 1":3866,"firefly reporter light, replicate 2":10041,"Renilla control light, replicate 1":992,"Renilla control light, replicate 2":2288,"call":"inactive"}
{"target":"Nckx30C","reagent":1,"firefly reporter light, replicate 1":2773,"firefly reporter light, replicate 2":6304,"Renilla control light, replicate 1":937,"Renilla control light, replicate 2":2601,"call":"inactive"}
{"target":"Nckx30C","reagent":2,"firefly reporter light, replicate 1":2323,"firefly reporter light, replicate 2":10418,"Renilla control light, replicate 1":1110,"Renilla control light, replicate 2":3945,"call":"inactive"}
{"target":"Nckx30C","reagent":3,"firefly reporter light, replicate 1":2073,"firefly reporter light, replicate 2":6819,"Renilla control light, replicate 1":1034,"Renilla control light, replicate 2":3271,"call":"inactive"}
{"target":"Nckx30C","reagent":4,"firefly reporter light, replicate 1":3016,"firefly reporter light, replicate 2":8369,"Renilla control light, replicate 1":597,"Renilla control light, replicate 2":2467,"call":"inactive"}
{"target":"CG1986","reagent":1,"firefly reporter light, replicate 1":13516,"Renilla control light, replicate 1":7568,"call":"inactive"}
{"target":"CG33791 + CG18170","reagent":1,"firefly reporter light, replicate 1":7905,"Renilla control light, replicate 1":4074,"call":"inactive"}
{"target":"CG33791 + CG18170","reagent":2,"firefly reporter light, replicate 1":4362,"Renilla control light, replicate 1":2037,"call":"inactive"}
